Values quoted from earlier work as cited in patent US20060286183A1, “Diet supplement for causing rapid weight loss, controlling appetite, managing stress, supporting relaxation, combating fatigue and supporting mental well-being” (priority 2005, published 2006).
At least one compound was matched to its structure with a doubt left.

Tests used:
[1] = relative to control animals
[2] = animal models of brain damage
[3] = humans, non-stress conditions
[4] = hypertensive rats

## CCNC(=O)CC[C@H](N)C(=O)O [Theanine, gamma-glutamylethylamide]
[1]
  weight gain and fat accumulation: suppressed
[2]
  neuroprotection: neuroprotective effects
[3]
  relaxation: relaxing effect
[4]
  blood pressure: lower blood pressure
